In test [1] the target is MBP-GS3 (rice (variety ZH11)). The test can be described thus: pull-down; MBP-GS3 treated with DTT, H2O or H2O2, then incubated with equal amounts of GST-RGB1 and MBP beads; immunoblot with anti-GST and anti-MBP. (In general: Immunoblotting shows a protein as a band on a membrane.)
For test [2], the target named is cLUC-GS3 (rice (variety ZH11)). The test can be described thus: split reporter; firefly luciferase complementation imaging (LCI) in N. benthamiana leaves, 36-48 h after infiltration; for RGB1-nLUC/cLUC-GS3 co-expressed with MYC, MYC-WG1 or MYC-WG1^C46,49S.

No constants are given. Whether binding was seen depends on the method and setting. In cells and extracts the contact can be indirect. A result given as binding can be weak or reduced; the word gives no strength. Sequences can lack the tags named with a protein.

B1: GST-RGB1 (protein, UniProt Q40687 1-380)
chain: MASVAELKEKHAAATASVNSLRERLRQRRQMLLDTDVERYSRTQGRTPVSFNPTDLVCCRTLQGHSGKVYSLDWTPEKNWIVSASQDGRLIVWNALTSQKTHAIKLHCPWVMTCAFAPNGQSVACGGLDSACSIFNLNSQADRDGNIPVSRILTGHKGYVSSCQYVPDQETRLITSSGDQTCVLWDVTTGQRISIFGGEFPSGHTADVLSLSINSSNSNMFVSGSCDATVRLWDIRIASRAVRTYHGHEGDINSVKFFPDGQRFGTGSDDGTCRLFDVRTGHQLQVYSREPDRNDNELPTVTSIAFSISGRLLFAGYSNGDCYVWDTLLAEVVLNLGNLQNSHEGRISCLGLSSDGSALCTGSWDKNLKIWAFSGHRKIV
On to B1, for which, in test [1], the binding result was “binds”.

B2: RGB1-nLUC (protein, UniProt Q40687 1-380)
chain: B1 chain
B2: the binding result in test [2] was “binds”.

The values above are taken from PMC12216599.
